1 compound from ChEMBL document CHEMBL4411283, “The p53 stabilizing agent CP-31398 and multi-kinase inhibitors. Designing, synthesizing and screening of styrylquinazoline series” (Eur J Med Chem, 2019) can be followed below.

As usually defined, the IC50 is the concentration that inhibits the measured activity by half. A high value points to weaker potency.

The test system of assay [1] is HCT-116. Description: cells. The following applies: Homo sapiens, HCT-116, 72 h.
The test system of assay [2] is HCT-116. Description: cells. Particulars: Homo sapiens, HCT-116, 72 h. This is another data set of the same source.

For `Cc1ccc(NC(=O)c2ccc(CN3CCN(C)CC3)cc2)cc1Nc1nccc(-c2cccnc2)n1` [IMATINIB], the figures for the IC50 in the assay with HCT-116 [1] and with HCT-116 [2] were 51.2 µM and 44.6 µM, respectively.
